± gives the standard deviation of the averaged measurements. Small differences around the control level are noise.
Columns and labels:
Assay in all cases: level (log10 ratio to DMSO vehicle control); higher = higher biomarker level / cell amount than vehicle control
[1] = compound: O=C(O)C(F)(F)C(F)(F)C(F)(F)C(F)(F)C(F)(F)C(F)(F)C(F)(F)C(F)(F)C(F)(F)C(F)(F)C(F)(F)C(F)(F)C(F)(F)F [Perfluorotetradecanoic acid]; conditions: in DMSO
Description: (§1)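 BioMAP Diversity Plus panel of 12 human primary cell co-culture systems (3C, 4H, LPS, SAg, BT, BF4T, BE3C, CASM3C, HDF3CGF, KF3CT, MyoF, Mphg). Compounds were added 1 h before stimulation and left for 24 h (MyoF 48 h; BT 72 h for soluble read-outs or 6 d for IgG). Biomarkers were read by ELISA, cytotoxicity by SRB, PBMC viability and proliferation by Alamar Blue. Each well value was divided by the mean of 8 DMSO control wells on the same plate and log10 transformed; duplicate blinded samples were tested at 4 concentrations.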

[2] = compound: O=S(=O)(O)C(F)(F)C(F)(F)C(F)(F)C(F)(F)C(F)(F)C(F)(F)F [Perfluorohexanesulfonic acid]; conditions: 2200 nM; in DMSO
Description: as §1

[3] = compound: FC(F)(I)C(F)(F)C(F)(F)C(F)(F)C(F)(F)C(F)(F)I [1,6-Diiodoperfluorohexane]; conditions: 2200 nM; in DMSO
Description: as §1

[4] = compound: O=S(=O)(O)CCC(F)(F)C(F)(F)C(F)(F)C(F)(F)F [4:2 Fluorotelomer sulfonic acid]; conditions: 2200 nM; in DMSO
Description: as §1

[5] = compound: OCCCC(F)(F)C(F)(F)C(F)(F)C(F)(F)C(F)(F)C(F)(F)C(F)(F)F [7:3 Fluorotelomer alcohol]; conditions: 2200 nM; in DMSO
Description: as §1

[6] = compound: C=CC(=O)OCC(F)(F)C(F)(F)C(F)(F)COC(=O)C=C [1H,1H,5H,5H-Perfluoro-1,5-pentanediol diacrylate]; conditions: 2200 nM; in DMSO
Description: as §1

[7] = compound: C=CC(=O)OCCC(F)(F)C(F)(F)C(F)(F)C(F)(F)F [2-(Perfluorobutyl)ethyl acrylate]; conditions: 2200 nM; in DMSO
Description: as §1

Perfluoro-1-iodohexane = compound: FC(F)(F)C(F)(F)C(F)(F)C(F)(F)C(F)(F)C(F)(F)I [Perfluoro-1-iodohexane]; conditions: in DMSO
Description: as §1

[8] = compound: O=C(O)C=C(C(F)(F)F)C(F)(F)F [3,3-Bis(trifluoromethyl)-2-propenoic acid]; conditions: in DMSO
Description: as §1

[9] = compound: O=C(Cl)C(F)(F)C(F)(F)C(F)(F)C(=O)Cl [Hexafluoroglutaryl chloride]; conditions: 2200 nM; in DMSO
Description: as §1

[10] = compound: C=CC(=O)OCCC(F)(F)C(F)(F)C(F)(F)C(F)(F)C(F)(F)C(F)(F)C(F)(F)C(F)(F)F [8:2 Fluorotelomer acrylate]; conditions: 2200 nM; in DMSO
Description: as §1

Hexafluoroamylene glycol = compound: OCC(F)(F)C(F)(F)C(F)(F)CO [Hexafluoroamylene glycol]; conditions: 2200 nM; in DMSO
Description: as §1

[11] = compound: FC(F)(F)C(F)(C(F)(F)F)C(F)(F)C(F)(F)CC1CO1 [3-(Perfluoro-3-methylbutyl)-1,2-propenoxide]; conditions: in DMSO
Description: as §1

Test System	level (log10) ([1]; 740 nM)	level (log10) ([1]; 2200 nM)	level (log10) [2]	level (log10) [3]	level (log10) [4]	level (log10) [5]	level (log10) [6]	level (log10) [7]	level (log10) (Perfluoro-1-iodohexane; 2200 nM)	level (log10) (Perfluoro-1-iodohexane; 6700 nM)	level (log10) (Perfluoro-1-iodohexane; 20000 nM)	level (log10) (Perfluoro-1-iodohexane; 60000 nM)	level (log10) ([8]; 2200 nM)	level (log10) ([8]; 6700 nM)	level (log10) ([8]; 20000 nM)	level (log10) ([8]; 60000 nM)	level (log10) [9]	level (log10) [10]	level (log10) (Hexafluoroamylene glycol)	level (log10) ([11]; 740 nM)	level (log10) ([11]; 2200 nM)
MyoF:CXCL8/IL-8	0.0125 ± 0.025	0.0235 ± 0.0064	0.0015 ± 0.023	0.068 ± 0.016	0.004 ± 0.042	0.0125 ± 0.046	0.0075 ± 0.0021	0.008 ± 0.0042	0.015 ± 0.024	0.021 ± 0.041	0.023 ± 0.041	0.0385 ± 0.028	0.0855 ± 0.0078	0.0915 ± 0.00071	0.107 ± 0.015	0.154 ± 0.016	-0.0115 ± 0.0092	0.0115 ± 0.049	-0.0055 ± 0.005	0.008 ± 0.044	-0.007 ± 0.011
lMphg:CD40	-0.037 ± 0.0099	-0.02 ± 0.071	-0.0395 ± 0.059	-0.0035 ± 0.019	-0.012 ± 0.016	0.008 ± 0.0014	-0.022 ± 0.024	-0.0075 ± 0.026	0.014 ± 0.023	-0.011 ± 0.0071	-0.0265 ± 0.0035	-0.0375 ± 0.013	-0.036 ± 0.0085	-0.0255 ± 0.00071	-0.0545 ± 0.0035	-0.071 ± 0.014	0.036 ± 0.065	-0.0195 ± 0.026	-0.0065 ± 0.0064	-0.0155 ± 0.0021	0.0045 ± 0.012
MyoF:Decorin	0.0305 ± 0.023	0.034 ± 0.0014	-0.024 ± 0.028	0.005 ± 0.041	-0.0055 ± 0.011	0.043 ± 0.035	-0.023 ± 0.0028	0.0145 ± 0.022	0.016 ± 0.02	0.0185 ± 0.011	0.023 ± 0.0042	-0.012 ± 0.044	-0.0075 ± 0.0064	-0.0275 ± 0.0021	-0.043 ± 0.024	-0.057 ± 0.045	-0.0085 ± 0.04	-0.0085 ± 0.019	-0.0095 ± 0.005	0.017 ± 0.0099	0 ± 0.0057
LPS:CD142/Tissue Factor	0.0645 ± 0.036	-0.0005 ± 0.071	-0.023 ± 0.0028	-0.0475 ± 0.0021	-0.0465 ± 0.043	-0.027 ± 0.021	-0.004	0.009 ± 0.065	-0.016 ± 0.0099	-0.018 ± 0.038	0.0045 ± 0.0021	0.0045 ± 0.011	0.0005 ± 0.043	0.0165 ± 0.064	-0.023 ± 0.12	-0.036 ± 0.12	0.086 ± 0.03	0.0495 ± 0.0064	0.0265 ± 0.069	-0.0225 ± 0.086	-0.0545 ± 0.091
LPS:IL-1alpha	0.018 ± 0.047	-0.017 ± 0.048	0.0115 ± 0.043	0.037 ± 0.0085	0.0235 ± 0.022	-0.015 ± 0.033	-0.007 ± 0.023	0.002	-0.0265 ± 0.028	-0.048 ± 0.035	-0.042 ± 0.021	-0.004 ± 0.0014	-0.0425 ± 0.0021	-0.0355 ± 0.015	-0.0495 ± 0.023	-0.095 ± 0.02	-0.022 ± 0.047	0.0155 ± 0.019	0.0365 ± 0.012	0.0085 ± 0.0064	-0.0135 ± 0.025
LPS:CCL2/MCP-1	0.039 ± 0.023	0.002 ± 0.0057	-0.002 ± 0.037	0.008 ± 0.0057	0.011 ± 0.011	-0.0105 ± 0.019	-0.0055 ± 0.035	0.0015 ± 0.025	-0.013 ± 0.03	-0.0025 ± 0.005	-0.009 ± 0.0014	0.0015 ± 0.032	0.002 ± 0.03	0.0015 ± 0.00071	-0.0145 ± 0.0035	-0.02 ± 0.03	0.0135 ± 0.0092	0.007 ± 0.025	0.013 ± 0.018	0.015 ± 0.037	-0.009 ± 0.0085

— the supplement of paper PMC10331698
